## Primary screen of a compound library

Values are the deposited “Percent Effect”, in %. How 0% and 100% were set is not recorded. Most values in the screen are low, and negative values occur. This is an unselected part of the compounds tested. Two or more numbers in one place are separate tests of the same structure; such repeats can differ widely.

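Viability assay of Plasmodium falciparum sporozoites; the read-out is not stated. The concentration is filed as 10 mM, unlikely as a test dose, so the dose is not known. Direction is inferred from retests: higher values go with lower viability. Strong results were mostly tested again. Size under these conditions: about 34,000 compounds, about 280 of them at 50% or above in at least one test.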

Compound,Percent Effect
Cl.O=C1N(Cc2cccc(Cl)c2)CCC12CCCNC2 (stereo not shown),9.895
COC(=O)N1CC[C@@]2(C1)[C@H](OC)CN(c1ccccc1)S2(=O)=O,-29.43
O=C(CCc1ccsc1)N(Cc1ccccn1)C1CC1,-29.21 & -25.82
Cn1nc2c(cc1=O)CN(Cc1nc(-c3ccccn3)no1)CC2,-2.481
N#Cc1ccccc1CN(CC(N)=O)C1CCCC1,0.3337
CCOc1ccccc1C(=O)N1CCCC1c1ncc2c(n1)CCNC2.Cl (stereo not shown),0
CCOc1ncccc1CNC(=O)NCC(O)c1ccccc1OC (stereo not shown),15.15
CCn1cc(CN2CCC(O)(Cn3ccc4ncccc43)CC2)cn1,0.9814
CC(=O)N1CCN(C(=O)CCn2c(C)nc3ccccc3c2=O)CC1,7.183
CCNC(=O)N1CC2=CC(C)(C)COc3ccc(OC)c(c32)C1,-17.98
COC(=O)N1CCCC(C(=O)Nc2nc(C)c(SC)s2)C1 (stereo not shown),-2.305
COc1cc(C(=O)NC(C)C)nc2c(C)cc(F)cc12,-0.2747
CCN1CCCC(c2c(-c3ccccc3)ncn2Cc2cccnc2)C1 (stereo not shown),-1.306
Cc1cnc(CN(C)C2CCN(Cc3ccccc3C#N)C2)o1 (stereo not shown),-11.76
O=C(O)C(F)(F)F.O=C(O)C(F)(F)F.[H][C@@]12COC[C@]1(CNC(=O)N1CCCC1)CN(Cc1cccc(C)n1)C2,-3.244
CC(=O)N1CCc2nc(C3CCN(C(=O)c4ccccc4)C3)ncc2C1 (stereo not shown),-1.404
c1ccc2oc(CN3CCCCC3Cn3cncn3)nc2c1 (stereo not shown),4.168
CC(C)CN1C(=O)C2(CCCC2)NC1c1c[nH]nc1-c1cccnc1 (stereo not shown),-8.672
COCc1cc(O)nc(C2CCCN(Cc3cccc(OC)c3)C2)n1 (stereo not shown),2.176
Cc1cc2c(=O)n3c(nc2s1)CCN(C(=O)c1cnn(C)c1C)CC3,-13.39
Cc1nc(CN(C)C2CCN(Cc3ccno3)C2)no1 (stereo not shown),-0.6936
COc1ccc(CC(=O)N2CCCC(n3cccn3)C2)cc1F (stereo not shown),5.192
O=C(NCCNc1ccccn1)Nc1cc(C(F)(F)F)c[nH]c1=O,-4.379
CC(C)Cc1cc(NC(=O)c2ccc(=O)[nH]n2)n(C)n1,11.77
COc1ccc(CN(Cc2c[nH]cn2)CC2CCCO2)c(OC)c1.O=C(O)CC(O)(CC(=O)O)C(=O)O (stereo not shown),-6.15
Cc1cccc(CNC(=O)CC2CCN(C(=O)C(C)C)CC2)n1,8.784
CN(C)c1nccc(C2CN(C(=O)CO)C2)n1,-10.94
CN(C)c1ncc(-c2cc(C(=O)NC(C)(C)CO)n(CC3CC3)c2)cn1,-7.431
Cc1ccc(C(=O)N2CC3(CCNCC3)c3cc(Cl)ccc32)cn1.O=C(O)C(F)(F)F.O=C(O)C(F)(F)F,-6.498
CCN1CCc2c(CNC(=O)c3nccn3C)cncc2C1.Cl.Cl.Cl,-5.026
O=C(NC1CC1)[C@H]1CN(Cc2ccccc2)C[C@@H]1C(=O)c1ccccc1,9.945
Cn1cc(CN2CCC[C@]3(C[C@@H](Oc4ncccc4F)CO3)C2)cn1.O=C(O)C(F)(F)F.O=C(O)C(F)(F)F,11.56
COCCOc1cccc(CNCC2CN(C)CCO2)c1 (stereo not shown),23.36
[H][C@@]12CN(Cc3nccs3)C[C@@H](C(=O)NC(C)C)[C@]1([H])CCO2,3.906
O=C(O)C(F)(F)F.[H][C@@]12COC[C@]1([H])[C@@H](OCC(=O)N(C)C)CN2Cc1ccsc1,19.93
Cc1cc(N2CCOC(c3ccc(N(C)C)cn3)C2)nc(N)n1 (stereo not shown),19.38
CN(C)C1COC2(CCN(Cc3ccc4c(c3)OCO4)CC2)C1.O=C(O)C(F)(F)F.O=C(O)C(F)(F)F (stereo not shown),4.641
CNc1cc(C2CCCNC2)nc(C)n1.Cl.Cl (stereo not shown),5.383
CN(C1CCCN(c2ccccn2)C1)S(=O)(=O)N1CCOCC1 (stereo not shown),4.126
Brc1cc2c(cc1CN1CCC(N3CCCCC3)CC1)OCCO2,-7.167
[H][C@@]12CS(=O)(=O)C[C@]1([H])N(Cc1ncc[nH]1)CCN2Cc1ccccc1CC,5.218
C=C(C)CN1CCC(NC(=O)c2scnc2C)CC1,2.603
COc1ccc(S(=O)(=O)Cc2noc(CC(C)C)n2)cc1,5.216
O=C(c1ccc(C(F)(F)F)nc1)N1CCCC(n2cncn2)C1 (stereo not shown),5.314
Cc1cc(C(=O)NC2CCCN(c3ccccc3)C2=O)on1 (stereo not shown),-7.296
O=C(C1CCC1)N1CC[C@H](O)[C@@H]1Cc1cccnc1.O=C(O)C(F)(F)F,8.671
Cc1cc(-c2cnc(NC3CCCC3)nc2-c2ccoc2)on1,-4.972
O=C(O)C(F)(F)F.[H][C@@]12CCN(S(C)(=O)=O)CC[C@]1(C(=O)N1CCCC1)CCN2CC,14.03
CC(C)c1ncc2c(n1)CN(Cc1nc(Cc3ccccc3)no1)CC2,4.428
OCC1CCCCN1Cc1cc(O)c2cccc(F)c2n1 (stereo not shown),-12.81 & -7.069
O=C(c1csc(C2CC2)n1)N1CCCC1Cn1cccn1 (stereo not shown),11.36
CNc1snc(C)c1C(=O)N1CCC(Nc2ccc(C)nn2)CC1,8.75
CN(C)CC1CN(Cc2coc(-c3cccs3)n2)CCO1 (stereo not shown),5.637
O=C(O)C(F)(F)F.O=C(O)C(F)(F)F.[H][C@]12C[C@H](CN(C)C)O[C@@]1([H])CN(Cc1ccoc1)C2,0.9632
O=C(O)C(F)(F)F.[H][C@@]12CCN(S(=O)(=O)CC)C[C@]1([H])[C@@H](CN(C)C)OC2,-6.54
CC(C)(C)c1nc(CC(=O)N2CCCC(n3cncn3)C2)cs1 (stereo not shown),-3.419
O=C(O)C(F)(F)F.O=C(O)C(F)(F)F.[H][C@@]12CN(C)CCO[C@]1([H])CN(S(=O)(=O)c1cccnc1)C2,-8.134
CN(C)CC1(O)CCN(S(=O)(=O)c2ccc(Cl)cc2)C1 (stereo not shown),4.797
O=C(O)C(F)(F)F.[H][C@@]12CCN(Cc3cccc(F)c3)C[C@]1(C(=O)N1CCOCC1)CCO2,7.452
CNS(=O)(=O)c1cccc(CNC(=O)NCC2CCOC2)c1 (stereo not shown),3.344
COc1cc(CNCCNC(=O)c2ccc(O)cc2)ccc1SC,-2.487
Cc1noc(C)c1CC(=O)NCc1ccnc(OCC(F)(F)F)c1,-0.0331

The last 8 entries again:

{"compound": "O=C(O)C(F)(F)F.[H][C@@]12CCN(S(=O)(=O)CC)C[C@]1([H])[C@@H](CN(C)C)OC2", "Percent Effect": -6.54}
{"compound": "CC(C)(C)c1nc(CC(=O)N2CCCC(n3cncn3)C2)cs1", "stereo": "stereo not shown", "Percent Effect": -3.419}
{"compound": "O=C(O)C(F)(F)F.O=C(O)C(F)(F)F.[H][C@@]12CN(C)CCO[C@]1([H])CN(S(=O)(=O)c1cccnc1)C2", "Percent Effect": -8.134}
{"compound": "CN(C)CC1(O)CCN(S(=O)(=O)c2ccc(Cl)cc2)C1", "stereo": "stereo not shown", "Percent Effect": 4.797}
{"compound": "O=C(O)C(F)(F)F.[H][C@@]12CCN(Cc3cccc(F)c3)C[C@]1(C(=O)N1CCOCC1)CCO2", "Percent Effect": 7.452}
{"compound": "CNS(=O)(=O)c1cccc(CNC(=O)NCC2CCOC2)c1", "stereo": "stereo not shown", "Percent Effect": 3.344}
{"compound": "COc1cc(CNCCNC(=O)c2ccc(O)cc2)ccc1SC", "Percent Effect": -2.487}
{"compound": "Cc1noc(C)c1CC(=O)NCc1ccnc(OCC(F)(F)F)c1", "Percent Effect": -0.0331}

Data taken from ChEMBL document CHEMBL3988442, “University of Dundee, Small-Polar-MMV Screening Library” (2021).